Measurements reported in PubChem BioAssay AID1259425 (University of Nebraska Medical Center, 2018)

Purpose: 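Seek colon cancer weak points whose silencing resembles KSR1 loss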 (primary screen)
Cell system: HCT116 human colon cancer cells
Knock-down reagent: siRNA pool against human genes, 50 nM siRNA
Read-out: 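mRNA of six signature genes measured together by branched-DNA assay after 50 nM siRNA pool, blank removed, divided by geometric mean of two housekeeping genes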
Scale: BNIP3L mRNA: higher = more BNIP3L transcript after knockdown; NDRG1 mRNA: higher = more NDRG1 transcript after knockdown; BNIP3 mRNA: higher = more BNIP3 transcript after knockdown; ALDOC mRNA: higher = more ALDOC transcript after knockdown; ACSL5 mRNA: higher = more ACSL5 transcript after knockdown
Here is a random part of about 14,000 deposited reagents. Not stated in the record: the time to read-out.

gene,"BNIP3L mRNA, set 1","NDRG1 mRNA, set 1","BNIP3 mRNA, set 1","ALDOC mRNA, set 1","ACSL5 mRNA, set 1"
CABP5 (GeneID 56344),0.153,0.105,0.385,0.0334,0.0689
PURG (GeneID 29942),0.0412,0.192,0.274,0.0499,0.162
KIAA1210 (GeneID 57481),0.0911,0.156,0.189,0.0371,0.261
PKP4 (GeneID 8502),0.0524,0.14,0.282,0.00553,0.0884
SLCO1C1 (GeneID 53919),1.16,2.78,2.03,0.37,0.112
G6PC1 (GeneID 2538),0.0912,0.186,0.337,-0.00535,0.266
MIA2 (GeneID 4253),0.0741,0.738,0.258,0.022,0.0909
IL12A (GeneID 3592),0.109,0.176,0.406,0.0206,0.233
MFSD6 (GeneID 54842),0.124,0.151,0.304,0.0208,0.167
LRCH3 (GeneID 84859),0.0881,0.155,0.322,0.0284,0.283
EBNA1BP2 (GeneID 10969),0.292,1.14,0.602,0.0298,0.37
PDE4D (GeneID 5144),0.126,0.177,0.316,0.0303,0.15
EPOR (GeneID 2057),0.0736,0.529,0.236,0.0206,0.287
PSG3 (GeneID 5671),0.126,0.28,0.218,0.0232,0.207
RBMS3 (GeneID 27303),0.0948,0.0889,0.329,0.0176,0.163
UNC79 (GeneID 57578),0.118,0.939,0.3,0.0477,0.508
RECQL4 (GeneID 9401),0.0688,0.144,0.303,0.0184,0.173
SIPA1L2 (GeneID 57568),0.12,0.0673,0.293,0.0171,0.199
RPP38 (GeneID 10557),0.102,0.249,0.288,0.0637,0.192
ABCB10 (GeneID 23456),0.147,0.349,0.309,0.0457,0.157
APOC4 (GeneID 346),0.0693,0.196,0.459,0.0278,0.135
RAG1 (GeneID 5896),0.128,0.365,0.238,0.0193,0.281
OGT (GeneID 8473),0.0791,0.19,0.31,0.041,0.14
MCM5 (GeneID 4174),0.125,0.372,0.308,0.0122,0.264
PSME1 (GeneID 5720),0.0856,0.126,0.275,0.0292,0.0888
SEC14L3 (GeneID 266629),0.0309,0.501,0.203,0.0194,0.28
SLC35A3 (GeneID 23443),0.0918,0.173,0.31,0.0241,0.135
IL11 (GeneID 3589),0.119,0.232,0.282,0.0207,0.211
C3orf18 (GeneID 51161),0.23,1.37,0.451,0.0449,0.387
NOM1 (GeneID 64434),0.0891,0.137,0.407,0.0286,0.251
PHYKPL (GeneID 85007),0.0987,0.359,0.323,0.067,0.208
LBH (GeneID 81606),0.236,0.578,0.373,0.135,0.506
MTSS1 (GeneID 9788),0.156,0.258,0.293,0.0381,0.159
SLC1A5 (GeneID 6510),0.158,0.186,0.248,0.0278,0.246

2 entries from above, limited to “NDRG1 mRNA, set 1”.
MCM5 (GeneID 4174)	0.372
PSME1 (GeneID 5720)	0.126
